According to patent publication US20230133118A1, “COMPOSITIONS AND METHODS FOR TREATING CANCER” (Adagene AG, priority 2020, published 2023):
These are yes or no findings as the source states them, for the method shown. Some binding calls cover weakened binding; strength is not graded here.

Amino acid sequences for entries named in this document (tags omitted). A change or cut given only in a name is not applied to a line headed by its entry. Residues count along the entry.
UniProt Q07011: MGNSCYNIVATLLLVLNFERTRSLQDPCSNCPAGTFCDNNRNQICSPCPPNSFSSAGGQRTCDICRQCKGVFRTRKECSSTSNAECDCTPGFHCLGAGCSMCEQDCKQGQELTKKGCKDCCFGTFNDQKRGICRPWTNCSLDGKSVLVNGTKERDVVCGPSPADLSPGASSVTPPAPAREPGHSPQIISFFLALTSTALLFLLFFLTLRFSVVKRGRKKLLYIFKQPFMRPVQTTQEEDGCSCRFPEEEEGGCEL
UniProt A9YYE7, residues 24-254: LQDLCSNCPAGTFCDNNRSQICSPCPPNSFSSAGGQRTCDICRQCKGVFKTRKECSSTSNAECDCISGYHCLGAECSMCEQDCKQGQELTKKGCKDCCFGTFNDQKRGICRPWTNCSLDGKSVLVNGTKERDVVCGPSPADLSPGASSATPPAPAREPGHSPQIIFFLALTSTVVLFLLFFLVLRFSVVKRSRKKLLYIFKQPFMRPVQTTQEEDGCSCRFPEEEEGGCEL

Experiments:
[1] = molecular target: human CD137 on cells (human) (UniProt Q07011); assay: binding to activated T cells; method not described
[2] = molecular target: human CD137 on cells (human) (UniProt Q07011); assay: binding to activated human T cells (stronger to CD8+ than to CD4+); method not described
[3] = molecular target: cynomolgus monkey CD137 (cynomolgus monkey) (UniProt A9YYE7); assay: binding to activated cynomolgus monkey T cells (stronger to CD8+ than to CD4+); method not described

Measured: binding

B1: ADG106 (antibody, human IgG4 S228P, kappa, V domains shown)
VH: EVQLVESGGGLVQPGGSLRLSCAASGFSLSTGGVGVGWIRQAPGKGLEWLALIDWADDKYYSPSLKSRLTISRDNSKNTLYLQLNSLRAEDTAVYYCARGGSDTVIGDWFAYWGQGTLVTVSS
VL: DIQLTQSPSSLSASVGDRVTITCRASQSIGSYLAWYQQKPGKAPKLLIYDASNLETGVPSRFSGSGSGTDFTLTISSLQPEDFATYYCQQGYYLWTFGQGTKVEIKR
binds: all assays above
